Drawing on PubChem BioAssay AID248 (DTP/NCI, 2004), this text covers survivor count and T/C for 18 compounds.

The list is a part of this screen's results and no random one: it gathers tests that were run many times, whatever their T/C, doses with no T/C, and many T/C values between a quarter and a half above the control. Further doses and runs are listed elsewhere. T/C gives the treated animals as a percentage of the vehicle group. Some entries give survivors of the animals treated and no T/C: the source holds a T/C of zero for them, seemingly a mark for toxic or unscored doses. Some doses without a T/C left all or most animals alive at the check, yet need not have been tolerated: the source hardly ever lists a survival T/C far under the control, and the zero likely stands for such cases as well. Counts of survivors are from the toxicity check (mostly the fifth day) where no day follows; animals may have died later. Schedules are NCI's codes, taken here to give the interval after Q, in days (D) or hours (H), and the number of doses after X. Some entries hold several experiments; the results are listed from low to high. Some structures stand for samples that the source files as different forms (salt, stereo form or complex); doses refer to the form tested. Where survival is the endpoint, the PubChem record calls one and a half times the control and up active, and a quarter to a half above the control has no call in these data; cut-offs in other NCI protocols can differ.

The test system of the experiment is L1210 leukemia ip in BDF1 mice, survival T/C. In words: NCI In Vivo Anticancer Drug Screen. Data for tumor model L1210 Leukemia (intraperitoneal) in B6D2F1 (BDF1) mice. The conditions noted are these: T/C endpoint: mean survival time, higher T/C = longer survival.
The mark [1] stands for this setting: dose: 100.0 mg/kg/injection, schedule: Q04DX002 (ip), vehicle: saline with Tween-80.
Setting [2] is: dose: 200.0 mg/kg/injection, schedule: Q04DX002 (ip), vehicle: saline with Tween-80.
Where [3] appears, read: dose: 400.0 mg/kg/injection, schedule: Q04DX002 (ip), vehicle: saline with Tween-80.
The mark [4] stands for this setting: dose: 100.0 mg/kg/injection, schedule: Q04DX003 (ip), vehicle: saline.
Where [5] appears, read: dose: 200.0 mg/kg/injection, schedule: Q04DX003 (ip), vehicle: saline.
The mark [6] stands for this setting: dose: 400.0 mg/kg/injection, schedule: Q04DX003 (ip), vehicle: saline.
The mark [7] stands for this setting: dose: 400.0 mg/kg/injection, schedule: Q01DX001 (ip), vehicle: saline.
[8] abbreviates: dose: 400.0 mg/kg/injection, schedule: Q01DX009 (ip), vehicle: saline with Tween-80.
[9] abbreviates: dose: 100.0 mg/kg/injection, schedule: Q04DX003 (ip), vehicle: Klucel (hydroxypropylcellulose) (HPC).
The mark [10] stands for this setting: dose: 6.0 mg/kg/injection, schedule: Q04DX003 (ip), vehicle: saline with Tween-80.
The mark [11] stands for this setting: dose: 40.0 mg/kg/injection, schedule: Q01DX001 (ip), vehicle: saline.
[12] abbreviates: dose: 80.0 mg/kg/injection, schedule: Q01DX001 (ip), vehicle: saline.
Setting [13] is: dose: 100.0 mg/kg/injection, schedule: Q01DX001 (ip), vehicle: saline.
The mark [14] stands for this setting: dose: 200.0 mg/kg/injection, schedule: Q01DX001 (ip), vehicle: saline.

Take `On1ccccc1=S`: the survivor count runs as follows: under setting [1], 0 of 3; under setting [2], 0 of 3; under setting [3], 0 of 3.

Regarding `[N-]=[N+]=NCc1cnccn1`, the survivor count was 1 of 6 (dose: 50.0 mg/kg/injection, schedule: Q01DX009 (ip), vehicle: saline); 4 of 6 under setting [4]; 0 of 6 under setting [5]; 0 of 6 under setting [6].

Take `N#CC1C(=O)NC(=O)C(C#N)C12CCCCC2` (stereo not drawn): the survivor count runs as follows: under setting [7], 2 of 4; under setting [8], 2 of 6.

In the case of `NC1=N/C(=C/[N+](=O)[O-])c2ccccc21`, the survivor count is listed as 3 of 4 (dose: 25.0 mg/kg/injection, schedule: Q04DX003 (ip), vehicle: saline); 0 of 3 (dose: 100.0 mg/kg/injection, schedule: Q04DX002 (ip), vehicle: saline); 1 of 3 (dose: 200.0 mg/kg/injection, schedule: Q04DX002 (ip), vehicle: saline); 0 of 3 (dose: 400.0 mg/kg/injection, schedule: Q04DX002 (ip), vehicle: saline).

For `CCOC(=O)C(C(=O)OCC)C(C)(C)Cc1ccccc1`, under setting [9], the survivor count is given as 0 of 6.

Take `O=C(O)C1=C(C(=O)O)C2C=CC1N2Cc1ccccc1`: the survivor count (dose: 400.0 mg/kg/injection, schedule: Q01DX001 (ip), vehicle: other) is on record as 0 of 6.

Regarding `C/C=C(/C)C(=O)O[C@H]1CC[C@@]2(C)[C@@H]3CC[C@H]4[C@]5(O)C[C@H](O)[C@@]6(O)[C@@H](CN7C[C@@H](C)CC[C@H]7[C@@]6(C)O)[C@]5(O)C[C@@]42O[C@@]13O`, the survivor count is on record as 2 of 6 (dose: 3.0 mg/kg/injection, schedule: Q04DX003 (ip), vehicle: saline with Tween-80); 0 of 6 under setting [10]; 1 of 6 (dose: 8.0 mg/kg/injection, schedule: Q01DX001 (ip), vehicle: saline); 2 of 6 (dose: 10.0 mg/kg/injection, schedule: Q01DX001 (ip), vehicle: saline); 0 of 6 (dose: 20.0 mg/kg/injection, schedule: Q01DX001 (ip), vehicle: saline); 0 of 6 under setting [11]. Moreover, the survivor count is, setting by setting: under setting [12], 0 of 6; under setting [13], 0 of 4; under setting [14], 0 of 4; under setting [7], 0 of 4.

As for `O=C1CC(=O)C(Br)=C1Br`, the survivor count is, setting by setting: under setting [10], 2 of 6; (dose: 100.0 mg/kg/injection, schedule: Q04DX003 (ip), vehicle: saline with Tween-80) 2 of 6; (dose: 200.0 mg/kg/injection, schedule: Q04DX003 (ip), vehicle: saline with Tween-80) 0 of 6; (dose: 400.0 mg/kg/injection, schedule: Q04DX003 (ip), vehicle: saline with Tween-80) 0 of 6.

For the compound `CN1CCC(C[CH2][Sn]([c]2ccccc2)([c]2ccccc2)[c]2ccccc2)CC1`, the survivor count reads like this: (dose: 50.0 mg/kg/injection, schedule: Q04DX002 (ip), vehicle: saline with Tween-80) 2 of 3; under setting [1], 0 of 3 and 2 of 3; under setting [2], 0 of 3; under setting [3], 0 of 3.

As for `O=NN(CCCl)C(=O)Nc1cc(Cl)ccc1O`, the T/C runs as follows: (dose: 8.0 mg/kg/injection, schedule: Q01DX001 (ip), vehicle: carboxymethylcellulose (CMC)) 128 % of control; (dose: 15.0 mg/kg/injection, schedule: Q01DX001 (ip), vehicle: carboxymethylcellulose (CMC)) 148 % of control; (dose: 30.0 mg/kg/injection, schedule: Q01DX001 (ip), vehicle: carboxymethylcellulose (CMC)) 135 % of control; (dose: 60.0 mg/kg/injection, schedule: Q01DX001 (ip), vehicle: carboxymethylcellulose (CMC)) 143 % of control; (dose: 75.0 mg/kg/injection, schedule: Q01DX001 (ip), vehicle: carboxymethylcellulose (CMC)) 149 % of control; (dose: 150.0 mg/kg/injection, schedule: Q01DX001 (ip), vehicle: carboxymethylcellulose (CMC)) 141 % of control. Moreover, the survivor count (dose: 150.0 mg/kg/injection, schedule: Q01DX009 (ip), vehicle: carboxymethylcellulose (CMC)) is given as 4 of 6 and the survivor count (dose: 300.0 mg/kg/injection, schedule: Q01DX001 (ip), vehicle: carboxymethylcellulose (CMC)) is 1 of 6.

Consider `c1ccc2c(c1)CC([CH2][Hg][CH2]C1Cc3ccccc3O1)O2` (stereo not drawn), for which, where the note is “dose: 400.0 mg/kg/injection, schedule: Q01DX001 (ip), vehicle: carboxymethylcellulose (CMC)”, the survivor count is recorded as 0 of 4.

For the compound `CC(=O)[O][Hg][c]1cc(C)c(O)c([N+](=O)[O-])c1`, the survivor count (dose: 12.5 mg/kg/injection, schedule: Q01DX009 (ip), vehicle: Klucel (hydroxypropylcellulose) (HPC)) is 4 of 6; the survivor count (dose: 25.0 mg/kg/injection, schedule: Q04DX003 (ip), vehicle: Klucel (hydroxypropylcellulose) (HPC)) is reported as 2 of 6; the survivor count (dose: 50.0 mg/kg/injection, schedule: Q04DX003 (ip), vehicle: Klucel (hydroxypropylcellulose) (HPC)) is given as 0 of 6; the survivor count under setting [9] is 0 of 6; the survivor count (dose: 200.0 mg/kg/injection, schedule: Q04DX003 (ip), vehicle: Klucel (hydroxypropylcellulose) (HPC)) is on record as 0 of 6; the survivor count (dose: 400.0 mg/kg/injection, schedule: Q04DX003 (ip), vehicle: Klucel (hydroxypropylcellulose) (HPC)) was 0 of 6.

As for `Nc1ccc(O)c2ccccc12`, the survivor count (dose: 12.5 mg/kg/injection, schedule: Q04DX003 (ip), vehicle: other) is given as 0 of 6; the survivor count (dose: 25.0 mg/kg/injection, schedule: Q04DX003 (ip), vehicle: other) is 0 of 6; the survivor count (dose: 50.0 mg/kg/injection, schedule: Q04DX003 (ip), vehicle: other) is 0 of 6; the survivor count (dose: 100.0 mg/kg/injection, schedule: Q04DX003 (ip), vehicle: other) was 0 of 6; the survivor count (dose: 200.0 mg/kg/injection, schedule: Q04DX003 (ip), vehicle: other) was 0 of 6.

With `CCOC(=O)N1CCC2(CC1)CC(=O)N(N1CCCCCC1)C2=O`, the survivor count (dose: 400.0 mg/kg/injection, schedule: Q04DX002 (ip), vehicle: Klucel (hydroxypropylcellulose) (HPC)) is listed as 1 of 3.

`C[N+](C)(C)CCOC(=O)Nc1ccc(C(c2ccc(NC(=O)OCC[N+](C)(C)C)cc2)c2ccc(NC(=O)OCC[N+](C)(C)C)cc2)cc1`: the survivor count is, setting by setting: (dose: 1.0 mg/kg/injection, schedule: Q01DX009 (ip), vehicle: saline with Tween-80) 1 of 6; (dose: 5.0 mg/kg/injection, schedule: Q04DX003 (ip), vehicle: saline) 0 of 6; (dose: 10.0 mg/kg/injection, schedule: Q04DX003 (ip), vehicle: saline) 0 of 6; (dose: 20.0 mg/kg/injection, schedule: Q04DX003 (ip), vehicle: saline) 0 of 6; under setting [4], 0 of 6; under setting [5], 0 of 6. For the same compound, the survivor count under setting [6] is 0 of 6.

Turning to `O=C(O)C(Cc1ccccc1)NC(=O)C(F)(F)F` (stereo not drawn), the survivor count (dose: 400.0 mg/kg/injection, schedule: Q04DX003 (ip), vehicle: other) was 0 of 6.

In the case of `CC(=O)Nc1ccc(/C=N/Nc2c([N+](=O)[O-])cc(C(F)(F)F)cc2[N+](=O)[O-])cc1`, the survivor count under setting [8] is listed as 3 of 6.

With `CCC[CH2][Sn]([CH2]CCC)=[N]S(=O)(=O)c1ccc(Cl)c(C)c1`, the survivor count is given as 1 of 4 under setting [11]; 0 of 4 under setting [12]; 0 of 4 under setting [13]; 0 of 4 under setting [14]; 0 of 4 under setting [7].
